Results published in patent US20240400638A1 (River 2 Renal Corp., priority 2021, published 2024).
Some peptides are written in HELM: one residue between dots, names in brackets for other building blocks, links after the first $.

Experiment: general procedure: Fmoc solid-phase peptide synthesis; Rink amide AM resin (low loading 0.47 mmol/g; Novabiochem or ChemImpex); DIC 0.5M/Oxyma 1M in DMF
Details: whole synthesis, trifluoroacetate salt; for final HPLC purity: UV; for final HPLC purity / isolated yield: scale of the general procedure 0.1-0.2 mmol per batch

Substance	final HPLC purity [%]	isolated yield [%]	crude mass [mg]	isolated mass [mg]	crude mass (scale 0.4 mmol in total) [mg]	isolated mass (scale 0.1 mmol) [mg]
Ac-L-E-G-R-E-K-V-R-A-K(Ac)-I-Aib-Aib-E-G-K(PEG2DGA-PEG2DGA-PEG.s-ub.2DGA-gE-gE-gE-Palm)-S-T-F-S-Mly-R-A-K(Ac)-NH2	99	8	220	37	–	–
Ac-L-E-G-R-E-K-V-R-A-K(Ac)-I-Aib-Aib-E-G-K(TTDS-TTDS-TTDS-gE-gE-gE-Stea)-S-T-F-S-Mly-R-A-K(Ac)-NH2	98	–	–	–	720	–
Ac-L-E-G-R-E-K-V-R-A-K(Ac)-I-Aib-Aib-E-G-K(TTDS-TTDS-TTDS-gE-gE-gE-Stea)-S-T-W-S-Aib-R-K-K(Ac)-NH2	99	–	–	–	–	20
Ac-L-E-G-R-E-K-V-R-A-K(Ac)-I-Aib-Aib-E-G-K(TTDS-TTDS-gE-gE-gE-Stea)-S-T-W-S-Aib-R-K-K(Ac)-NH2	97	8	–	38	–	–
PEPTIDE1{[ac].L.E.G.R.E.K.V.R.A.[K(Ac)].I.[Aib].[Aib].E.G.K.S.T.F.S.[Mly].R.A.[K(Ac)].[am]}|PEPTIDE2{[Palm].[gE].[gE].[gE].[TTDS].[TTDS].[TTDS]}$PEPTIDE1,PEPTIDE2,17:R3-7:R2$$$V2.0	99	17.5	–	428	–	–
